The text below walks through data of PubChem BioAssay AID493014 (National Center for Advancing Translational Sciences (NCATS), 2011).

The structures appear in SMILES notation. This is one part of the list. Shown are side measurements of this screen, not its main read-out; they come without a call. The list favours compounds with an active or inconclusive main result. Words in brackets tell the shape of the fitted curve; partial curves, single points and poor fits give uncertain potencies.

This experiment can be described thus: qHTS Assay to Find Inhibitors of Chronic Active B-Cell Receptor Signaling. Conditions: ABC-DLBCL IkBa-CBG/CBR reporter, luminescence ratio (green luciferase fused to IkBa over red control in TMD8 lymphoma cells), 4 h. In short, it runs like this: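 TMD8 human ABC-DLBCL cells with doxycycline-inducible IκBα–green luciferase fusion and unfused red luciferase, in 0.5% FBS medium; compounds up to 46 uM, 4 h at 37C. Green/red luminescence ratio, filter-overlap corrected, fitted to concentration-response curves.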
(In general: qHTS replaces the single test concentration by a dilution series.)

The mark [1] stands for this setting: measured here: CBR red luminescence, cell number.
Where [2] appears, read: measured here: IkBa-CBG green luminescence.

Consider `Cc1ccc2c(c1)C1C[N+](C)(CC(=O)Nc3ccccc3Cl)CCC1N2C(=O)c1ccccc1Cl` (centres undefined), for which, under setting [1], the AC50 (as a rule, the concentration at which the activity in the assay is half-maximal) was 6.51 µM [falling, partial curve].
As to `CC(C)(C)C(=O)OC/C(N)=N/OC(=O)c1ccccc1`, the AC50 under setting [1] was 7.94 µM [rising, partial curve].
On the same count and under the same terms, the figure for `O=Cc1ccc2c(c1)CCN2Cc1ccccc1` is 15.8 µM [rising, single point].
Regarding `C[C@@]12C(=O)Nc3ccc(F)cc3C(=O)N1[C@H]1c3ccccc3OC[C@@H]1[C@@H]2c1ccccc1`, the AC50 runs as follows: under setting [1], 2.59 µM [falling, full curve]; under setting [2], 2.91 µM [rising, full curve, poor fit].
`CCOC(=O)CSc1nnc(-c2ccc(NS(=O)(=O)c3ccc(C)cc3)cc2)o1`: the AC50 under setting [1] is 23.1 µM [falling, single point].
The same measure, in the same setting: the figure for `COc1ccccc1CNS(=O)(=O)c1ccc2c(c1)oc(=O)n2C` is 2.59 µM [falling, single point]; for `CC1CCCN(S(=O)(=O)CCNC(=O)c2ccccc2)C1` (centres undefined) it is 14.6 µM [rising, partial curve, poor fit].
As to `COc1ccc(CN(C)C(=O)CCl)cc1`, the concentration at half-maximal activity (AC50) under setting [1] is 17.8 µM [falling, single point].
Regarding `CCn1nnnc1NCc1ccc(OCc2c(F)cccc2Cl)c(OC)c1`, the AC50 under setting [1] was 17.8 µM [falling, partial curve].
Consider `CCCn1c(Nc2ccc(Cl)cc2)nc2ccccc21`, for which the AC50 under setting [1] is 22.4 µM [rising, single point].
As for `c1ccc(-c2ccc(C3=Nn4c(Cn5nnc6ccccc65)nnc4SC3)cc2)cc1`, under setting [1], the AC50 is 0.1 µM [rising, full curve, poor fit].
`Cc1nc(SCC(=O)NNC(=O)c2ccc(F)cc2)c2ccccc2n1`: under setting [1], the AC50 was 25.9 µM [falling, single point].
As to `CCC(=O)c1ccc(/C=C/c2nc3ccccc3n2C)o1`, under setting [1], the AC50 was 35.5 µM [falling, single point].
Consider `C=CC[C@H](CC(=O)N(CCO)Cc1ccccc1)C(=O)NC[C@H](OC(=O)[C@@H](CC=C)Cc1ccc(F)cc1)c1ccccc1`, for which the AC50 under setting [1] is 29.1 µM [falling, single point].
For `Cc1nn(C)c(Oc2ccccc2)c1[N+](=O)[O-]`, the AC50 under setting [1] was 0.366 µM [rising, full curve].
On the same count and under the same terms, the same measure for `CC1CC(C)CN(CC(=O)N2CCOCC2)C1` (centres undefined): 12.6 µM [rising, single point]; for `O=C(Nc1cccc(-c2nc3ccccc3[nH]2)c1)c1ccc(C(=O)Nc2cccc(-c3nc4ccccc4[nH]3)c2)cc1`: 1.26 µM [rising, full curve, poor fit]; for `O=C(CCNc1ccc(Br)cc1)c1cccc([N+](=O)[O-])c1`: 35.5 µM [falling, single point].
With `C=CCOc1ccc2ccccc2c1CNn1c(C)n[nH]c1=S`, the AC50 is 2.51 µM [rising, full curve, poor fit] under setting [1] and 12.6 µM [falling, partial curve] under setting [2].
Consider `COc1ccccc1NS(=O)(=O)c1cc(NC(=O)c2ccncc2)ccc1N1CCOCC1`, for which the AC50 under setting [1] was 20.6 µM [rising, single point].
The same measure, in the same setting: the figure for `COc1ccccc1N/C(N)=N/c1nc(C(F)(F)F)cc(=O)[nH]1` is 3.16 µM [falling, single point]; for `COC(=O)/C(C#N)=C/c1c(N2CCCCCC2)nc2ccccn2c1=O` it is 22.4 µM [falling, single point]; for `C/C(CC(=O)Nc1cccc(F)c1)=N\NC(=O)C(=O)NC1CCCCC1` it is 6.51 µM [falling, partial curve].
Take `Cc1cc(C)c2sc(N(CCN(C)C)C(=O)c3c(F)cccc3F)nc2c1`: under setting [1], the half-maximal activity concentration (AC50) is 10 µM [falling, partial curve].
For the compound `O=C(Cc1cccs1)Nc1nc2c(ccc3ccccc32)s1`, the AC50 under setting [1] was 23.1 µM [falling, single point].
On the same count and under the same terms, the same measure for `CS/C(=C\[N+](=O)[O-])Nc1ccc(C)cc1`: 7.08 µM [falling, full curve]; for `Cc1ccc(S(=O)(=O)CCC(=O)Nc2nc(-c3cccnc3)cs2)cc1`: 3.55 µM [rising, single point]; for `Cc1ccc(C(=O)NC(=S)N2CCN(c3ccc([N+](=O)[O-])cc3)CC2)cc1`: 0.259 µM [rising, full curve, poor fit].
Still for that read-out and setting: the same measure for `CCOC(=O)/C(C#N)=C/C=C1\C=Cc2ccccc2N1CC`: 15.8 µM [rising, partial curve, poor fit].
Regarding `C/C(O)=C(\C#N)c1nc2ccccc2[nH]1`, the concentration at half-maximal activity (AC50) under setting [1] was 8.2 µM [falling, partial curve].
As for `N#CC1=C(N)Nc2nc3ccccc3n2C1c1ccc(Cl)cc1` (centres undefined), the AC50 under setting [1] is 32.6 µM [falling, partial curve, poor fit].
The same measure, in the same setting: the figure for `Cc1csc(NC(=O)c2cccc(Cn3nc(C)c(Br)c3C)c2)n1` is 3.98 µM [falling, partial curve, poor fit]; for `CCN(Cc1ccncc1)C(=O)c1cc(COc2c(C)cccc2C)on1` it is 35.5 µM [falling, partial curve, poor fit].
Still for that read-out and setting: the same measure for `CCCNC(=O)CS(=O)Cc1nc(-c2ccc(OC)cc2)oc1C` (centres undefined): 6.51 µM [falling, single point].
As for `CCOC(=O)c1sc(NC(=S)NC(=O)c2ccco2)nc1C`, the AC50 under setting [2] is 18.4 µM [rising, partial curve, poor fit].
For `COc1cccc2oc3ccc(C#Cc4ccccn4)cc3c(=O)c12`, the AC50 under setting [1] was 0.794 µM [rising, full curve, poor fit].
The same measure, in the same setting: the same measure for `CC(=O)c1cccc(NC(=O)c2cnn3ccccc23)c1`: 32.6 µM [falling, single point].
On the same count and under the same terms, the figure for `CC(C)[C@H](NC(N)=O)C(=O)Nc1ccc2c(c1)CCC2` is 35.5 µM [rising, partial curve, poor fit]; for `CC1CN(C(=O)COc2ccc3ccccc3c2)CC(C)O1` (centres undefined) it is 6.51 µM [rising, partial curve].
Take `O=C(NN=C1CCCC1)c1ccc(Cl)cc1`: the AC50 is, setting by setting: under setting [1], 35.5 µM [falling, single point]; under setting [2], 35.5 µM [falling, single point].
Regarding `O=C(Nc1ccc(NC(=O)c2cccs2)cn1)c1ccccc1`, the AC50 under setting [1] is 10 µM [falling, partial curve, poor fit].
On the same count and under the same terms, the figure for `CCn1c(/N=C/c2c[nH]c3ccccc23)nc2ccccc21` is 11.2 µM [falling, partial curve].
For the compound `COc1cccc(C(=O)NCc2cn3ccsc3n2)c1`, the AC50 under setting [1] was 8.2 µM [rising, partial curve, poor fit].
On the same count and under the same terms, the same measure for `Cc1cccc(N2CCN(CC(O)COc3ccc(Cl)cc3)CC2)c1` (centres undefined): 2.51 µM [falling, partial curve, poor fit].
On the same count and under the same terms, the same measure for `CCN(CC)CCN1c2ccccc2Sc2ccc3ccccc3c21`: 14.1 µM [falling, partial curve]; for `CCC(=O)Nc1c(S(=O)(=O)c2ccccc2)c2nc3ccccc3nc2n1C(C)c1ccccc1` (centres undefined): 16.4 µM [falling, single point].
Consider `Cc1ccc(SCC(=O)OCC(=O)NCCC2=CCCCC2)cc1`, for which the AC50 under setting [2] is 4.11 µM [falling, partial curve, poor fit].
For the compound `COC(=O)C1=C(C)NC(=O)CC1c1cc(Br)ccc1F` (centres undefined), the AC50 under setting [1] was 1.84 µM [rising, single point].
For `CCOc1ccc(CCNC(=O)c2cc(=O)[nH]c3ccc(S(=O)(=O)N4CCCCC4C)cc23)cc1OCC` (centres undefined), the AC50 by setting is: under setting [1], 0.447 µM [rising, full curve, poor fit]; under setting [2], 11.2 µM [falling, partial curve, poor fit].
In the case of `O=C(Cc1ccc(Cl)cc1)Nc1ccc(Br)cc1`, the AC50 under setting [1] was 2.24 µM [rising, full curve].
In the case of `O=C(NCCc1ccccc1)C(c1cccs1)N(C(=O)CCl)c1ccc(Cl)cc1` (centres undefined), the AC50 runs as follows: under setting [1], 20.6 µM [falling, partial curve]; under setting [2], 23.1 µM [rising, single point].
`O=C(Nc1cc(-c2nc3ncccc3o2)ccc1Cl)c1ccc2c(c1)OCO2`: the half-maximal activity concentration (AC50) under setting [1] was 2.59 µM [rising, single point].
On to `CCOC(=O)CCCNC(=O)COC(=O)c1cccc(C)c1O`, for which the AC50 under setting [1] is 10 µM [falling, partial curve].
Still for that read-out and setting: the same measure for `N#Cc1cn(Cc2ccncc2)c(=O)[nH]c1=O`: 17.8 µM [rising, single point]; for `CCCCCn1c(CNC(=O)COC)nc2ccccc21`: 6.51 µM [rising, single point]; for `Cc1ccc(S(=O)(=O)Cc2nnnn2-c2ccccc2)cc1`: 0.316 µM [falling, partial curve, poor fit].
In the case of `COc1ccccc1NC(=O)Cn1c(CN2CCCCC2)nc2ccccc2c1=O`, the AC50 under setting [1] is 12.6 µM [falling, partial curve, poor fit].
As to `COc1ccc(NC(=O)CN(C)S(=O)(=O)c2cccc3nsnc23)cc1OC`, under setting [1], the AC50 is 23.1 µM [rising, single point].
On the same count and under the same terms, the figure for `Cc1[nH]c2ccccc2c1C(=O)COC(=O)c1cccc(S(=O)(=O)N2CCCCC2)c1` is 5.17 µM [falling, partial curve, poor fit].
On the same count and under the same terms, the same measure for `Oc1oc(-c2ccccc2)nc1C=Nc1ccccc1`: 7.08 µM [falling, partial curve]; for `Cc1ccc(O)c(NC(=O)c2noc(C(C)C)c2[N+](=O)[O-])c1`: 0.501 µM [rising, full curve, poor fit]; for `COc1ccc(OC)c(-c2cc(-c3cccnc3)nc(N)c2C#N)c1`: 11.2 µM [falling, partial curve, poor fit].
Regarding `Cc1ccccc1-n1nc2c(c1NC(=O)CCCl)CSC2`, the AC50 under setting [1] is 5.62 µM [falling, single point].
Same read-out and setting: the same measure for `O=C(CSc1nc2cc(Cl)ccc2s1)c1cc2ccccc2o1`: 6.51 µM [rising, single point].
